In article PMC3541368:
Results are given in words; binding and its absence hold for the method and conditions named. In cells and extracts the contact can be indirect. Binding can be weak; no strength is given.

By UniProt entry, the sequences of proteins in these tests, tags left out. Where a name states a change or a piece, a line headed by the entry shows the natural chain unless it says otherwise.
UniProt Q02078: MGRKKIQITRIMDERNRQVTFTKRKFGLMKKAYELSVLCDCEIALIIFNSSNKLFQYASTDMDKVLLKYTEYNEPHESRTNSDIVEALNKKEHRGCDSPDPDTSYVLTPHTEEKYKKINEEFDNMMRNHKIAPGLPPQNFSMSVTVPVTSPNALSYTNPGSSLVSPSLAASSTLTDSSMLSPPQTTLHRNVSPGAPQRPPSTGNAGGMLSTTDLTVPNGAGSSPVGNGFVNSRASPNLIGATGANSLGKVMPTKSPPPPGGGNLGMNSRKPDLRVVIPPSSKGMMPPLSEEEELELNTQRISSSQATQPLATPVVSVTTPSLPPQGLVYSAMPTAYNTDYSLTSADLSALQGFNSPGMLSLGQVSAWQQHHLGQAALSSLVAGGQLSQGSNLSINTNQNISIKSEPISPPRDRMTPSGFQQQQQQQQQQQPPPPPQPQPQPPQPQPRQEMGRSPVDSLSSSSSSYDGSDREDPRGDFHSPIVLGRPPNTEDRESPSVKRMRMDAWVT

Legend:
Test in all cases: co-IP; anti-M2 FLAG beads, FLAG-Gβ2/mutants and MEF2-expressing cells; immunoblot quantified (Kodak Imager), n = 3
FLAG-Gβ2 ΔWD1 (human) = FLAG-Gβ2 ΔWD1 (human) (UniProt P62879)
FLAG-Gβ2 ΔWD6 (human) = FLAG-Gβ2 ΔWD6 (human) (UniProt P62879)
FLAG-Gβ2 ΔWD4 (human) = FLAG-Gβ2 ΔWD4 (human) (UniProt P62879)
FLAG-Gβ2 ΔWD3 (human) = FLAG-Gβ2 ΔWD3 (human) (UniProt P62879)
FLAG-Gβ2 ΔWD2 (human) = FLAG-Gβ2 ΔWD2 (human) (UniProt P62879)
FLAG-Gβ2 ΔWD7 (human) = FLAG-Gβ2 ΔWD7 (human) (UniProt P62879)
FLAG-Gβ2 ΔWD5 (human) = FLAG-Gβ2 ΔWD5 (human) (UniProt P62879)

Measured: binding

MEF2A in 'FLAG-Gβ2/mutants and MEF2-expressing cells' (from UniProt Q02078 1-507)
binds: all assays above
